Results as given in the supplement of paper PMC6445147.
Single values of this data set are uncertain.

B1: human tRNA-Pro; a variant is named by its letters at N, in order (parent)
chain: GGCTCGTTGGTCTAGNGGTATGATTCTCGCTTAGGGTGCGAGAGGTCCCGGGTTCNNATCCCGGACGAGCCC

How the values were obtained:
[1] = variants of: B1; assay: tRNA Pol-III promoter activity, log2 (circRNA frequency / plasmid DNA frequency) (log2 ratio); higher = stronger promoter activity; details: HEK293T; construct: no Pol-II promoter ((-)CMV library)
[2] = variants of: B1; assay: tRNA 3' processing efficiency (processed reads / all reads, maximum-likelihood estimate) (fraction); higher = more efficient 3' processing; details: HEK293T; construct: no Pol-II promoter ((-)CMV library)
[3] = variants of: B1; assay: tRNA 5' processing efficiency (processed reads / all reads, maximum-likelihood estimate) (fraction); higher = more efficient 5' processing; details: HEK293T; construct: CMV Pol-II promoter ((+)CMV library, decapped)

| Variant | tRNA Pol-III promoter activity (log2) [1] | tRNA 3' processing efficiency [2] | tRNA 5' processing efficiency [3] |
| --- | --- | --- | --- |
| GGA G9C T19A C55A | 7.94 | 0.75 | – |
| GGG A14G | 5.68 | 0.02 | – |
| GGG A14T | 3.16 | 0.43 | – |
| GGG A14C | 5.68 | 0.25 | – |
| GGG T8C T19A | 6.62 | 0.17 | – |
| CGG C55T | 5.36 | 0.13 | – |
| CGA T59G | 3.77 | 0.4 | – |
| GGG G9T | 2.61 | 0.25 | – |
| GGG G9A | 3.58 | 0.28 | – |
| GGT A58T | 3.23 | 0.38 | – |
| ATA | 2.87 | 0.4 | – |
| GGC G17T | 1.54 | 0.25 | – |
| GGC G17A | 1.46 | 0.2 | – |
| GGA G18A | 0.242 | 0.67 | – |
| GTA A14C A58T | 4.51 | 0.5 | – |
| GTA A14C | 1.52 | 0.31 | 0.25 |
| CGA G18A T59A | 4.03 | 0.5 | – |
| GGA G15C T19A | 6.06 | 0.27 | – |
| GGC A20G | 3.36 | 0.25 | – |
| GGC A20T | 2.71 | 0.17 | – |
| GGA T19C T59G | 4.93 | 0.25 | – |
| GTA A14C A20T | 3.12 | 0.25 | – |
| GGA C55T A58G T59G | 10.5 | 0.11 | – |

| Variant | tRNA Pol-III promoter activity (log2) [1] | tRNA 3' processing efficiency [2] | tRNA 5' processing efficiency [3] |
| --- | --- | --- | --- |
| GGG A20T | 2.36 | 0.78 | – |
| GGA T19C T53A A58T | 5.26 | 0.4 | – |
| TGA T54A A58G | 5.45 | 0.31 | – |
| TGA T54A A58T | 5.84 | 0.57 | – |
| GGA T19C T54A | 6.74 | 0.14 | – |
| GGA G18A A58G T59G | 6.94 | 0.62 | – |
| GGG T19A T53A T59C | 9.92 | 0.01 | – |
| TGA G15A T54A T59A | 3.94 | 0.5 | – |
| GGT G9A T53A | 6.25 | 0.2 | – |
| GGA T59G | 1.1 | 0.39 | – |
| GGA T59A | 1.01 | 0.22 | – |
| GGA T59C | 2.32 | 0.25 | – |
| GGG A14T T53G | 3.94 | 0.5 | – |
| GGA G17T | -0.249 | 0.2 | – |
| GGG C55T | 3.63 | 0.18 | – |
| GGA T8G T53G | 4.62 | 0.17 | – |
| GGT T59G | 2.81 | 0.5 | – |
| GGT T59C | 3.78 | 0.27 | – |
| TGG G9A | 8.03 | 0.12 | – |
| GGC | 2.24 | 0.26 | – |
| GGT | 3.45 | 0.32 | – |
| GGG | 2.8 | 0.62 | – |
| CGA G9A T53A | 3.98 | 0.25 | – |

Single records (already shown):
TGA T54A A58T is entered as tRNA Pol-III promoter activity (log2) [1]: 5.84; tRNA 3' processing efficiency [2]: 0.57
GGG C55T is entered as tRNA Pol-III promoter activity (log2) [1]: 3.63; tRNA 3' processing efficiency [2]: 0.18
GGG is entered as tRNA Pol-III promoter activity (log2) [1]: 2.8; tRNA 3' processing efficiency [2]: 0.62

Going on with the list:

| Variant | tRNA Pol-III promoter activity (log2) [1] | tRNA 3' processing efficiency [2] | tRNA 5' processing efficiency [3] |
| --- | --- | --- | --- |
| GGT G18A | 3.49 | 0.18 | – |
| GGA T19A T54A C55T | 5.16 | 0.43 | – |
| GGT A14G | 1.3 | 0.4 | – |
| GGT A14T | 2.61 | 0.25 | 0.33 |
| GGT A14C | 3.36 | 0.45 | – |
| GGC T8A G9C G18T A20C C55T | 5.39 | 0.36 | – |
| GGA G18A T53G | 5.74 | 0.43 | – |
| GGA G18A T53A | 5.52 | 0.14 | – |
| CGT | 5.15 | 0.48 | – |
| CGC | 7.11 | 0.44 | – |
| CGG | 4.11 | 0.38 | – |
| CGA T53A | 2.62 | 0.25 | – |
| GGT G9T A14C | 3.67 | 0.2 | – |
| GGA T8G G18T T53A | 6.51 | 0.5 | – |
| GGA G15A A58G | 5.26 | 0.2 | – |
| GGA G18T A58T | 0.855 | 0.25 | – |
| GGA G15C A58T | 2.04 | 0.25 | – |
| GGA T8C G9A | 2.02 | 0.25 | – |
| GGA G18A A20T | 2.45 | 0.25 | – |
| GGA G15C T53A | 6.36 | 0.4 | – |
| GGA T19G A58T | 2.13 | 0.25 | – |
| GGA T54G C55T | 2.12 | 0.25 | – |
| GGC T59G | 5.36 | 0.4 | – |

| Variant | tRNA Pol-III promoter activity (log2) [1] | tRNA 3' processing efficiency [2] | tRNA 5' processing efficiency [3] |
| --- | --- | --- | --- |
| TGA T59A | 3.56 | 0.2 | – |
| TGA T59G | 3.15 | 0.43 | 0.25 |
| GGA G15T C55T | 1.77 | 0.25 | – |
| GGT T8G G17C | 4.36 | 0.25 | – |
| GGG A14C A58T | 4.03 | 0.25 | – |
| GGT A20T | 4.57 | 0.71 | – |
| GGT A20G | 2.81 | 0.5 | – |
| GGA C55T A58G | 4.01 | 0.29 | – |
| GGA C55T A58T | 1.3 | 0.2 | – |
| GGA T8C T59C | 6.03 | 0.38 | – |
| GGA T8C T59G | 5.75 | 0.21 | – |
| GGA T8C C55A | 3.46 | 0.4 | – |
| TGA T53A A58G | 4.34 | 0.25 | – |
| GGA G17A T59C | 3.34 | 0.33 | – |
| GGA T53A A58T | 5.16 | 0.57 | – |
| TGA T53G | 4.66 | 0.41 | – |
| GGA T19A T59G | 3.36 | 0.4 | – |
| GGG A20T A58G | 9.35 | 0.05 | – |
| GGC C55T | 5.15 | 0.57 | – |
| GGG T19C | 4.32 | 0.25 | 0.03 |
| GGG T19A | 5.51 | 0.11 | – |
| GGG T54A | 7.54 | 0.14 | – |
| GGA G17A T53G T59A | 5.25 | 0.6 | – |

| Variant | tRNA Pol-III promoter activity (log2) [1] | tRNA 3' processing efficiency [2] | tRNA 5' processing efficiency [3] |
| --- | --- | --- | --- |
| CGA T19A | 3.93 | 0.4 | – |
| GGA T19C T53A | 4.93 | 0.33 | – |
| GGA T19C T53G | 4.36 | 0.4 | – |
| GGT G17A G18C | 6.25 | 0.1 | – |
| GGA G17C A58C | 4.36 | 0.44 | – |
| GGA T19A A20T C55G | 6.53 | 0.33 | – |
| GGG A14T A58G | 6.26 | 0.2 | – |
| GGA T8G C55T | 3.47 | 0.62 | – |
| GGA T8G C55G | 2.53 | 0.5 | – |
| GGA T19G A20C | 9.8 | 0.94 | – |
| GGT T19A A20T | 4.93 | 0.33 | – |
| GGG G18T | 1.07 | 0.25 | – |
| GGG G18A | 2.17 | 0.25 | – |
| GGC T54C | 4.03 | 0.4 | – |
| CTA A14C | 6.13 | 0.37 | – |
| GGA T53G | 1.86 | 0.38 | – |
| GGA T53A | 1.4 | 0.43 | – |
| GGC A14C G18A | 6.75 | 0.14 | – |
| GGA T8A A58T | 3.67 | 0.2 | – |
| GGG G17C | 3.91 | 0.36 | – |
| GGG G17A | 3.4 | 0.44 | – |
| TGA G15T T54A | 6.26 | 0.2 | – |
